Percent effect of library compounds

Data taken from ChEMBL document CHEMBL3988442, “University of Dundee, Small-Polar-MMV Screening Library” (2021).

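Phenotypic screen: M. tuberculosis growth, cholesterol and DPPC medium, 4 days; the read-out is not stated. Compounds at 50 µM. The record gives no direction; compounds that gave an IC50 in retests scored well above the rest, so higher reads as more growth inhibition. Of about 69,000 compounds tested this way, about 370 (0.54%) reached 50% or more in at least one test.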

The filed quantity is “Percent Effect” (%).
The controls that fix the scale are not given in the record; negative values are as filed.
The compounds are a random part of those screened.
Two or more numbers in one place are separate tests of the same structure; such repeats can differ widely.

* O=C1CCC(=O)N1c1nn(Cc2ccccc2)cc1Cl : -4.759%
* O=C(NCC1CCC2(CC1)OCCO2)c1ccncc1F : 6.077%
* COc1ccc(C2SC(C)=Nc3c2c(=O)[nH]n3C2CCCC2)cc1O (stereo not shown) : 0.6507%
* c1ccc(CCN2CCN(C3CCOC4(CCOCC4)C3)CC2)nc1 (stereo not shown) : -1.435%
* CC(c1nnc(-c2cccs2)o1)N1CCc2cncnc2C1 (stereo not shown) : -21.69%
* CC(OCC1CC1)C(=O)NCc1cccc(CN2CCN(C)CC2)c1 (stereo not shown) : -13.04%
* CC(C)CCN1CCNC(=O)C1CC(=O)NCCc1cc(O)ncn1 (stereo not shown) : 4.52%
* CC(C)(C)NC(=O)NC(=O)CN1C=Nc2ccccc2S1(=O)=O : 2.48%
* O=C(CCSc1ccccc1)NS(=O)(=O)c1ccc2c(c1)OCCO2 : 10.26%
* COCCNC(=O)c1ccc2c(=O)n3c(nc2c1)CCN(C)CC3 : -7.034%
* O=C(CCc1ccsc1)N1CCC(C(=O)O)(c2ccccc2)CC1 : -3.941%
* [H][C@@]12COC[C@]1([H])[C@@H](OCc1cccnc1)CN2C(=O)c1ccc(C)nc1 : -10.88%
* C=C(C)COc1cccc(CN(C)C(C)c2nccs2)c1 (stereo not shown) : 4.474%
* Cc1noc(C)c1CC(=O)N1CCN(Cc2cscn2)CC1 : 16.33%
* CC(C)N1CCC(N(C)c2ccnc(N(C)C)n2)CC1 : -15.02% and -4.952%
* CC(C)CN1CCC2(C=C(C(=O)NC3CC3)c3ccccc32)CC1.O=C(O)C(F)(F)F : 3.367%
* CC1CCCCN1C1CN(c2nc(C3CCCC3)nc3c2cnn3C)C1 (stereo not shown) : -16.29%
* O=C(c1ccccc1)C1CCN(C(=O)CC2COCCN2)CC1 (stereo not shown) : -12.7%
* CCN(CC1CCOC1)C(=O)c1ccccc1S(=O)(=O)CC (stereo not shown) : -15.35%
* O=C(N1CCCC(n2cncn2)C1)C1(c2cccc(F)c2)CC1 (stereo not shown) : 0.3779%
* O=C(O)C(F)(F)F.[H][C@@]12COC[C@]1(COCc1cccnc1)CN(C(=O)c1ccccc1F)C2 : -8.168% and 0.7677%
* CSc1ccc(Cl)c(C(=O)N2CCCC(CNS(C)(=O)=O)C2)c1 (stereo not shown) : -32.54%
* CN(C)C(=O)Cn1cc(C(=O)NCCc2cccc(Cl)c2Cl)nn1 : -6.949%
* Cc1ccnc(OCC(=O)N2CCC(C(N)=O)CC2)n1 : 0.4118%
* CCc1nn(C)c2[nH]nc(NC(=O)c3ccccc3COC)c12 : -3.987%
* CN(C)C(=O)c1nc2c(s1)CCN(C(=O)c1ccc(Cl)cc1)CC2 : 21.49%
* CC(C)c1nc2c(n1C)CCN(CCCOc1ccc(C#N)cc1)C2 : 3.068%
* CSc1nnc(C2CCN(C(=O)N3CCOCC3)CC2)n1C(C)C : -19.97% and 0.2246%
* CCC(C)NC(=O)CN1CCOCC1 (stereo not shown) : -8.564%
* CN1CCCN(C(=O)NCCNc2cnccn2)CC1 : -7.311%
* CC(=O)Cn1ncc(N2CCOCC2)cc1=O : -26.88%
* CN(C)c1cc2c(nn1)CCN(C(=O)c1ccc(-n3cccn3)nc1)C2 : 13.5%
* CCn1c(CN2CCCN(C(=O)OC)CC2)nc2c(F)cccc21 : -6.493%
* Cc1cc(NC(=O)C(c2cccc(F)c2)N2CCOCC2)sn1 (stereo not shown) : 2.869% and -0.8434%
* O=C(O)C(F)(F)F.O=C(O)C(F)(F)F.[H][C@]12CC(=O)N(Cc3cccc(C)n3)[C@@]1([H])CCN2Cc1ccc(F)cc1 : -2.51% and -8.353%
* CCC(N)c1ccccc1OCC(=O)N1CCCC1 (stereo not shown) : -2.169%
* CCN(CC)C(=O)c1cc(C2CCCN2C)ccn1.O=CO (stereo not shown) : -10.39%
* Cc1nc(C(=O)N2CCCC2c2noc(C)n2)c[nH]1 (stereo not shown) : 0.5557%
* CC(C)c1nc(/C=C/c2cnn(-c3ccccc3)c2)ncc1C(=O)O : 3.828%
* CCc1nc(C)sc1C(=O)N1CCN(c2ncccc2C)CC1 : -3.621%
* CC(=O)N(CCc1ccccc1)CC(=O)Nc1ccccc1C#N : 4.058%
* COc1ccc(C(=O)NCc2cccnc2N2CCOCC2)o1 : -14.86%

The first 5 entries again:

SMILES,effect
O=C1CCC(=O)N1c1nn(Cc2ccccc2)cc1Cl,-4.759
O=C(NCC1CCC2(CC1)OCCO2)c1ccncc1F,6.077
COc1ccc(C2SC(C)=Nc3c2c(=O)[nH]n3C2CCCC2)cc1O (stereo not shown),0.6507
c1ccc(CCN2CCN(C3CCOC4(CCOCC4)C3)CC2)nc1 (stereo not shown),-1.435
CC(c1nnc(-c2cccs2)o1)N1CCc2cncnc2C1 (stereo not shown),-21.69